Article PMC7865754, “Design and Synthesis of π-Extended Resveratrol Analogues and In Vitro Antioxidant and Anti-Inflammatory Activity Evaluation” (Molecules, 2021)

System: NO production in LPS-treated RAW 264.7 cells
Experiment: Inhibition of NO production (Griess assay, nitrite) in LPS-treated RAW 264.7 cells
Assay type: cell-based, Murine
Settings: ratio of toxicity (LD50) / anti-inflammatory potency (ED50)
Text: In the pathogenesis of inflammatory-related disorders, NO is recognized as one of the important mediators. […] Herein, to understand the anti-inflammatory properties of the resveratrol analogues, we studied their inhibitory effects against NO production in LPS-treated RAW 264.7 cells. Although it is not possible to measure NO quantitatively in a biological environment due to its rapid oxidation to NO2 (nitrite), short physiological half-life and presence of other free radicals, NO secretion activity in cells is indirectly determined by Griess assay counting its stable product NO2 levels. The inhibitory effects of 1–7 on NO production were collected in Table 2. […] Cell viability was not affected up to 50 μM except for 2. We also applied in vitro efficacy index (iEI) paradigm, the ratio of toxicity (LD50)/anti-inflammatory potency (ED50), to confirm that the anti-inflammatory activity is in the viable cells only. […] On the whole, compounds 5 and 7 have much-improved iEI values compared to any other compounds.
Anti-inflammatory activity was measured as the effect of compounds on inhibiting NO production versus cell viability. Their inhibitory effect was also tested for pro-inflammatory cytokine gene expression. […]
NO assay and cell viability test
Murine macrophage, Raw 264.7 cells were grown in Dulbecco’s modified Eagle’s medium (Gibco, Carlsbad , CA, USA), supplemented with 2 mM glutamine, antibiotics (100 U/mL of penicillin A and […] of streptomycin) and 10% FBS (Gibco). Cells were cultured in 96-well plates (5×10^4 cells), treated with serial dilutions of compound (3.125-100 µM) and stimulated with LPS (1 µg/mL) for 24 h at 37°C. After incubation, the supernatant was collected and the amount of nitrite was quantified using the Griess Reagent System ( Promega, Fitchburg, WI, USA ). For the correction of NO production, cell viability was measured using the CellTiter 96® Aqueous one solution cell proliferation assay kit (Promega). Cells were incubated with varying amounts of compound for 24 h, then MTS (tetrazolium salt) reagent was added to the plates. After 1h, the absorbance at 490 nm was read using a microplate reader (Thermo Scientific, Waltham, MA, USA).
Statistical analysis. Statistical significance was analyzed using the GraphPad Prism 5 software (GraphPad Software, San Diego, CA, USA). The comparison of two groups was performed by the unpaired t test. Values of *P less than 0.05, **P less than 0.01 and ***P less than 0.001 were considered statistically significant.

Structure (SMILES)	iEI (LD50/ED50), in vitro efficacy index
Oc1cc(O)cc(/C=C/c2ccc3cc(O)ccc3c2)c1 [Compound 2]	0.98
Oc1cc(O)cc(/C=C/c2cnc3cc(O)ccc3c2)c1 [Compound 3]	3.75
Oc1cc(O)cc(/C=C/c2ccc3cc(O)ccc3n2)c1 [Compound 4]	3.18
Oc1cc(O)cc(/C=C/c2cc3ccc(O)cc3cn2)c1 [Compound 5]	4.84
Oc1cc(O)cc(/C=C/c2cnc3cc(O)ccc3n2)c1 [Compound 6]	2.11
Oc1cc(O)cc(/C=C/c2ncc3cc(O)ccc3n2)c1 [Compound 7]	4.27
